Holding throughout (assay): Cytotoxicity / antiproliferative activity, MTS test
Common to all, as to assay type: cell-based
In general terms: Tetrazolium assays rely on reduction of a dye to a coloured formazan, in cell work by metabolically active cells.

The test system of one test is PANC-1. The conditions noted are these: Homo sapiens, 72-h incubation. The source says: (§1) The human colon carcinoma cell line HCT 116 wild type (p53^+/+) and the human breast carcinoma cell line MCF-7 were obtained from ATCC. The human colon cancer cell line HCT 116, which has a p53 deletion (p53^-/-), was kindly provided by prof. M. Rusin from the Maria Sklodowska-Curie Memorial Cancer Centre and Institute of Oncology in Gliwice, Poland. The glioblastoma cell line U-251 was kindly provided by prof. G. Kramer-Marek from The Institute of Cancer Research in London, United Kingdom. The pancreatic cell line PANC-1 and the human chronic myelogenous leukemia cell line K562 were purchased from Sigma-Aldrich. The adherent cell lines were cultured in Dulbecco’s modified Eagle’s medium (DMEM) containing 12% heat-inactivated fetal bovine serum (all from Sigma-Aldrich) with a mix of two standard antibiotics: 1% v/v of penicillin and streptomycin (Gibco) in 75 cm^2 flasks (Nunc). The suspension cell line K562 was cultured in an RPMI-1640 medium (Sigma-Aldrich), which had been supplemented with 10% heat-inactivated foetal bovine serum and the antibiotics. All of these cell lines were grown under standard conditions at 37 °C in a 5% CO2 humidified atmosphere. Prior to beginning the experiments, all of the cell lines were subjected to routine mycoplasma testing with specific Mycoplasma primers using the PCR technique.
(§2) The exponentially growing cells for all of the cell lines were seeded in 96-well plates (Nunc) at a density of 5000 cells/well and incubated at 37 °C for 24 h. The assay was performed following a 72-h incubation with the various concentrations of the compounds that were being tested. Then, 20 µL of CellTiter 96®AQueous One Solution-MTS (Promega) solution was added to each well (with 100 µL DMEM without phenol red) and incubated for 1 h at 37 °C. The optical densities of the samples were analyzed at 490 nm using a multi-plate reader (Synergy 4, BioTek). The results are expressed as the percentage of the control and were calculated as the inhibitory concentration (IC50) values using GraphPad Prism 7. Each individual compound was tested in triplicate in a single experiment with each experiment being repeated five times.

In another test the test system is HCT 116 p53-/-. The conditions noted are these: Homo sapiens, 72-h incubation.
From the text: as §1, §2

A further test has as its system HCT 116 p53+/+. The following applies: Homo sapiens, 72-h incubation.
From the text: as §1, §2

The test system of a further test is MCF-7. The conditions noted are these: Homo sapiens, MCF7, 72-h incubation.
From the text: as §1, §2

A further test concerns K562. The following applies: Homo sapiens, 72-h incubation.
From the text: as §1, §2

The test system of another test is U-251. The conditions noted are these: Homo sapiens, 72-h incubation.
From the text: as §1, §2

As a reminder, the IC50 is the concentration at which inhibition is half-maximal. In the case of `Cc1ccc(NC(=O)c2ccc(CN3CCN(C)CC3)cc2)cc1Nc1nccc(-c2cccnc2)n1` [Imatinib, imatinib, reference compound], the concentration for half-maximal inhibition (IC50) in the test with PANC-1 is over 30 µM; in the test with HCT 116 p53-/-, over 30 µM; with HCT 116 p53+/+, over 30 µM; with MCF-7, over 30 µM; in the test with K562 it was 0.13 ± 0.03 µM; in the test on U-251, over 30 µM.

(Values after paper PMC7139656, “The Landscape of the Anti-Kinase Activity of the IDH1 Inhibitors” (Cancers, 2020).)
